Results: patent US5707798A, “Identification of ligands by selective amplification of cells transfected with receptors” (priority 1994, dated 1998)
For at least one compound, name, drawing or mass did not settle the structure.

Molecular target: T1, EP3 prostanoid receptor (Homo sapiens, UniProt P43115)
T1 construct: expressed in transfected cells; host or cells: NIH 3T3 (mouse fibroblasts, ATCC CRL 1658)
T1 sequence (P43115 1-390): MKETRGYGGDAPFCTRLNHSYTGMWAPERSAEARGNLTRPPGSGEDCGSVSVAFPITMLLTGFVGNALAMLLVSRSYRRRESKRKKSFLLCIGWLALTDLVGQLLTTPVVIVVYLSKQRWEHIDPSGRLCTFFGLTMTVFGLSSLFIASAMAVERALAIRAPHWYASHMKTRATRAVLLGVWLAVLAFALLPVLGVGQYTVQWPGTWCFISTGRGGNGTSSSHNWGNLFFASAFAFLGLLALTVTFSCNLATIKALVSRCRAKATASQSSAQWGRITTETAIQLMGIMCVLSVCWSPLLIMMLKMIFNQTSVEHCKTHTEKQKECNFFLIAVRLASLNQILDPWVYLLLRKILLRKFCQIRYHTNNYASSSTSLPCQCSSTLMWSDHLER
Type: cell-based
Set-up: key to the marks not given beside the values
Conditions: relative to other clones

In the case of `O=C(O)CCCCCC[C@H]1C(=O)CC[C@@H]1/C=C/[C@@H](O)COc1ccccc1` [MB28767], the Rmax is reported as “++”.
